Measured data: PubChem BioAssay AID1508597 (Cure First, 2020)
The deposit covers about 2,100 reagents; shown is an unselected part. 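Calls flag viability under 80% in either arm, not effects specific to rucaparib; the reference for percent is not stated.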 A number with no mark means an inactive call. Not stated in the record: the 100% reference.

Aim: 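Genes whose silencing sensitises or protects ovarian cancer cells against rucaparib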 (primary screen)
Cell system: human ovarian carcinoma lines grown from tumours: OCI-P5x (papillary serous) and OCI-C5x (clear cell)
Reagents: siRNA pool against human genes, 1.25 pmol siRNA per well
Timing: 72 h or 96 h, depending on the cell culture
Treatment: rucaparib 20 µM (about IC30) or vehicle, present until read-out
Measured: 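Luminescent ATP-based viability assay read 72 or 96 h after transfection, depending on culture, given as normalised percent viability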
Scale: viability, normalised: higher = more viable cells remaining
Rule for the call: 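a well counts as a hit if its normalised viability is under 80 percent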
Calls: active = viability under 80%; inactive = viability 80% or more

PHKA2 [SID405527614], rucaparib or vehicle Rucaparib, cell line OCI-C5x (clear cell), technical replicate 1 gave viability, normalised (%) = 57.7 (active).
PHKA2 [SID405527614], rucaparib or vehicle Rucaparib, cell line OCI-C5x (clear cell), technical replicate 2 gave viability, normalised (%) = 72.6 (active).
PHKA2 [SID405527614], rucaparib or vehicle Rucaparib, cell line OCI-C5x (clear cell), technical replicate 3 scored viability, normalised (%) = 80.5.
With PHKA2 [SID405527614], rucaparib or vehicle Rucaparib, cell line OCI-P5x (serous), technical replicate 1, the values are viability, normalised (%) = 102.
For PHKA2 [SID405527614], rucaparib or vehicle Rucaparib, cell line OCI-P5x (serous), technical replicate 2 the deposit lists viability, normalised (%) = 64 (active).
For PHKA2 [SID405527614], rucaparib or vehicle Rucaparib, cell line OCI-P5x (serous), technical replicate 3 the deposit lists viability, normalised (%) = 85.9.
For PHKA2 [SID405527614], rucaparib or vehicle Vehicle, cell line OCI-C5x (clear cell), technical replicate 1 the deposit lists viability, normalised (%) = 80.9.
For PHKA2 [SID405527614], rucaparib or vehicle Vehicle, cell line OCI-C5x (clear cell), technical replicate 2, the entry reads viability, normalised (%) = 75.2 (active).
PHKA2 [SID405527614], rucaparib or vehicle Vehicle, cell line OCI-C5x (clear cell), technical replicate 3 showed viability, normalised (%) = 89.1.
With PHKA2 [SID405527614], rucaparib or vehicle Vehicle, cell line OCI-P5x (serous), technical replicate 1, the entry reads viability, normalised (%) = 87.8.
PHKA2 [SID405527614], rucaparib or vehicle Vehicle, cell line OCI-P5x (serous), technical replicate 2 showed viability, normalised (%) = 97.7.
PHKA2 [SID405527614], rucaparib or vehicle Vehicle, cell line OCI-P5x (serous), technical replicate 3 scored viability, normalised (%) = 98.1.
For HNRNPAB [SID405526883], rucaparib or vehicle Rucaparib, cell line OCI-C5x (clear cell), technical replicate 1 the deposit lists viability, normalised (%) = 55.5 (active).
With HNRNPAB [SID405526883], rucaparib or vehicle Rucaparib, cell line OCI-C5x (clear cell), technical replicate 2 the deposit lists viability, normalised (%) = 43.2 (active).
HNRNPAB [SID405526883], rucaparib or vehicle Rucaparib, cell line OCI-C5x (clear cell), technical replicate 3 gave viability, normalised (%) = 53 (active).
For HNRNPAB [SID405526883], rucaparib or vehicle Rucaparib, cell line OCI-P5x (serous), technical replicate 1 the deposit lists viability, normalised (%) = 68.4 (active).
HNRNPAB [SID405526883], rucaparib or vehicle Rucaparib, cell line OCI-P5x (serous), technical replicate 2 gave viability, normalised (%) = 81.5.
HNRNPAB [SID405526883], rucaparib or vehicle Rucaparib, cell line OCI-P5x (serous), technical replicate 3 gave viability, normalised (%) = 68.5 (active).
For HNRNPAB [SID405526883], rucaparib or vehicle Vehicle, cell line OCI-C5x (clear cell), technical replicate 1, the values are viability, normalised (%) = 51.2 (active).
HNRNPAB [SID405526883], rucaparib or vehicle Vehicle, cell line OCI-C5x (clear cell), technical replicate 2 gave viability, normalised (%) = 61.3 (active).
For HNRNPAB [SID405526883], rucaparib or vehicle Vehicle, cell line OCI-C5x (clear cell), technical replicate 3 the deposit lists viability, normalised (%) = 43.2 (active).
HNRNPAB [SID405526883], rucaparib or vehicle Vehicle, cell line OCI-P5x (serous), technical replicate 1 gave viability, normalised (%) = 83.4.
With HNRNPAB [SID405526883], rucaparib or vehicle Vehicle, cell line OCI-P5x (serous), technical replicate 2 the deposit lists viability, normalised (%) = 92.3.
For HNRNPAB [SID405526883], rucaparib or vehicle Vehicle, cell line OCI-P5x (serous), technical replicate 3, the values are viability, normalised (%) = 96.9.
